PubChem BioAssay AID1259308 | NCATS | 2017
The whole screen tested about 59,000 reagents; this is an unselected part. About 1,510 of them (2.6%) count as active. 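Calls use total luciferase alone and ignore viability, so some active siRNAs may act by altering cell number.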 The numbers tell different reagents against one gene apart. Further read-outs or replicates are left out here.

Aim: 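Candidate targets for better recombinant protein yield in mammalian cells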 (primary screen)
Cell system: human HEK293 embryonic kidney cells stably expressing firefly luciferase (HEK-CMV-Luc2-Hygro)
Knock-down reagent: single siRNA against human genes, 0.8 pmol siRNA per well
Time to read-out: 72 h
Measurement: 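Reporter luminescence and viable-cell signal on separate replicate plates, given as percent of non-targeting control and median/MAD z-scores, plus per-cell luciferase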
Direction: total luciferase, z-score and total luciferase, % of control: higher = more reporter protein produced; luciferase per cell, z-score: higher = more reporter output per viable cell
Rule for the call: 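An siRNA counts as active if its total luciferase robust z-score exceeds 3; genes with two or more such siRNAs out of three were retested with fresh siRNAs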
Calls: active = raised luciferase; inactive = no rise

gene knocked down | reagent no. | total luciferase, z-score | total luciferase, % of control | luciferase per cell, z-score | Call
PAOX (polyamine oxidase) | 1 | -0.733 | 67.3 | -1.13 | inactive
PAOX (polyamine oxidase) | 2 | 1.43 | 110 | 2.76 | inactive
PAOX (polyamine oxidase) | 3 | -0.0298 | 81.3 | -0.0181 | inactive
OR7G3 (olfactory receptor family 7 subfamily G member 3) | 1 | 2.65 | 135 | 3.49 | inactive
OR7G3 (olfactory receptor family 7 subfamily G member 3) | 2 | 0.463 | 91.1 | 0.159 | inactive
OR7G3 (olfactory receptor family 7 subfamily G member 3) | 3 | 2.5 | 132 | 1.83 | inactive
EXTL2 (exostosin like glycosyltransferase 2) | 1 | 0.133 | 84.5 | 0.309 | inactive
EXTL2 (exostosin like glycosyltransferase 2) | 2 | -2.11 | 39.9 | -2.73 | inactive
EXTL2 (exostosin like glycosyltransferase 2) | 3 | 1.21 | 106 | 0.396 | inactive
CRIM1 (cysteine rich transmembrane BMP regulator 1) | 1 | 0.306 | 88 | -0.358 | inactive
CRIM1 (cysteine rich transmembrane BMP regulator 1) | 2 | -0.877 | 64.4 | -0.267 | inactive
CRIM1 (cysteine rich transmembrane BMP regulator 1) | 3 | -0.811 | 65.8 | -1.14 | inactive
RPS2P50 (ribosomal protein S2 pseudogene 50) | 1 | 0.191 | 85.7 | 1.12 | inactive
RPS2P50 (ribosomal protein S2 pseudogene 50) | 2 | 1.04 | 103 | 0.988 | inactive
RPS2P50 (ribosomal protein S2 pseudogene 50) | 3 | 0.106 | 84 | -0.313 | inactive
LRRC8A (leucine rich repeat containing 8 VRAC subunit A) | 1 | -1.16 | 58.8 | -1.07 | inactive
LRRC8A (leucine rich repeat containing 8 VRAC subunit A) | 2 | -0.909 | 63.8 | -0.838 | inactive
LRRC8A (leucine rich repeat containing 8 VRAC subunit A) | 3 | 0.0636 | 83.2 | 0.34 | inactive
PLEKHD1 (pleckstrin homology and coiled-coil domain containing D1) | 1 | -0.814 | 65.7 | -0.245 | inactive
PLEKHD1 (pleckstrin homology and coiled-coil domain containing D1) | 2 | 2.38 | 129 | 2.09 | inactive
PLEKHD1 (pleckstrin homology and coiled-coil domain containing D1) | 3 | 1.95 | 121 | 0.928 | inactive
TMEM41B (transmembrane protein 41B) | 1 | 0.916 | 100 | 2.76 | inactive
TMEM41B (transmembrane protein 41B) | 2 | 1.86 | 119 | 1.56 | inactive
TMEM41B (transmembrane protein 41B) | 3 | -0.529 | 71.4 | -0.245 | inactive
S100A11 (S100 calcium binding protein A11) | 1 | 0.28 | 87.5 | -0.444 | inactive
S100A11 (S100 calcium binding protein A11) | 2 | 1.31 | 108 | 0.991 | inactive
S100A11 (S100 calcium binding protein A11) | 3 | -0.0727 | 80.4 | 0.246 | inactive
PCNA (proliferating cell nuclear antigen) | 1 | 0.903 | 99.8 | 0.992 | inactive
PCNA (proliferating cell nuclear antigen) | 2 | 2.22 | 126 | 1.73 | inactive
PCNA (proliferating cell nuclear antigen) | 3 | -1.44 | 53.2 | -1.58 | inactive
TRAK2 (trafficking kinesin protein 2) | 1 | 0.452 | 90.9 | 2.34 | inactive
TRAK2 (trafficking kinesin protein 2) | 2 | -0.566 | 70.6 | -1.38 | inactive
TRAK2 (trafficking kinesin protein 2) | 3 | 0.895 | 99.7 | 1.24 | inactive
LINC00922 (long independently transcribed non-coding RNA 922) | 1 | -1.35 | 55 | -0.88 | inactive
LINC00922 (long independently transcribed non-coding RNA 922) | 2 | -0.325 | 75.4 | -0.104 | inactive
LINC00922 (long independently transcribed non-coding RNA 922) | 3 | -1.13 | 59.5 | 0.875 | inactive
CCDC187 (coiled-coil domain containing 187) | 1 | 0.693 | 95.7 | 2.1 | inactive
CCDC187 (coiled-coil domain containing 187) | 2 | 0.0409 | 82.7 | -0.119 | inactive
CCDC187 (coiled-coil domain containing 187) | 3 | 0.306 | 88 | -0.363 | inactive
DBNL (drebrin like) | 1 | -0.0892 | 80.1 | -0.367 | inactive
DBNL (drebrin like) | 2 | 0.589 | 93.6 | 1.02 | inactive
DBNL (drebrin like) | 3 | -1.17 | 58.5 | -1.66 | inactive
SMARCE1 (SWI/SNF related BAF chromatin remodeling complex subunit E1) | 1 | 1.06 | 103 | 1.25 | inactive
SMARCE1 (SWI/SNF related BAF chromatin remodeling complex subunit E1) | 2 | -0.487 | 72.2 | -0.741 | inactive
SMARCE1 (SWI/SNF related BAF chromatin remodeling complex subunit E1) | 3 | -0.236 | 77.2 | -0.85 | inactive
PRTG (protogenin) | 1 | 0.779 | 97.4 | 0.696 | inactive
PRTG (protogenin) | 2 | 0.536 | 92.6 | 0.649 | inactive
PRTG (protogenin) | 3 | 0.183 | 85.5 | -0.511 | inactive
TFDP2 (transcription factor Dp-2) | 1 | 3.19 | 145 | 1.86 | active
TFDP2 (transcription factor Dp-2) | 2 | -0.523 | 71.5 | -0.467 | inactive
TFDP2 (transcription factor Dp-2) | 3 | 0.187 | 85.6 | -0.112 | inactive
RIBC1 (RIB43A domain with coiled-coils 1) | 1 | -0.244 | 77 | -0.695 | inactive
RIBC1 (RIB43A domain with coiled-coils 1) | 2 | -1.68 | 48.4 | -1.66 | inactive
RIBC1 (RIB43A domain with coiled-coils 1) | 3 | 0.0643 | 83.2 | 0.84 | inactive
UTP15 (UTP15 small subunit processome component) | 1 | -1.47 | 52.7 | -0.809 | inactive
UTP15 (UTP15 small subunit processome component) | 2 | 0.524 | 92.3 | 1.19 | inactive
UTP15 (UTP15 small subunit processome component) | 3 | 0.464 | 91.1 | 1.53 | inactive
CTNNA1 (catenin alpha 1) | 1 | -1.82 | 45.6 | -1.42 | inactive
CTNNA1 (catenin alpha 1) | 2 | 0.0978 | 83.8 | -0.289 | inactive
CTNNA1 (catenin alpha 1) | 3 | 0.128 | 84.4 | -0.318 | inactive
MIF (macrophage migration inhibitory factor) | 1 | 0.495 | 91.7 | -0.00374 | inactive
MIF (macrophage migration inhibitory factor) | 2 | -0.531 | 71.3 | -0.829 | inactive
MIF (macrophage migration inhibitory factor) | 3 | 2.83 | 138 | 2.58 | inactive
RASGEF1A (RasGEF domain family member 1A) | 1 | 0.675 | 95.3 | 0.493 | inactive
RASGEF1A (RasGEF domain family member 1A) | 2 | -0.634 | 69.3 | -0.596 | inactive
RASGEF1A (RasGEF domain family member 1A) | 3 | 0.248 | 86.8 | 0.0518 | inactive
PAPOLB (poly(A) polymerase beta) | 1 | 0.302 | 87.9 | 0.478 | inactive
PAPOLB (poly(A) polymerase beta) | 2 | -1.38 | 54.4 | -1.2 | inactive
PAPOLB (poly(A) polymerase beta) | 3 | -0.662 | 68.7 | -0.424 | inactive
SPATA25 (spermatogenesis associated 25) | 1 | 1.62 | 114 | 0.963 | inactive
SPATA25 (spermatogenesis associated 25) | 2 | 8.11 | 243 | 4.14 | active
SPATA25 (spermatogenesis associated 25) | 3 | 2.05 | 123 | 2.67 | inactive
GPNMB (glycoprotein nmb) | 1 | -0.52 | 71.5 | -0.746 | inactive
GPNMB (glycoprotein nmb) | 2 | 0.322 | 88.3 | 0.832 | inactive
GPNMB (glycoprotein nmb) | 3 | 0.301 | 87.9 | 0.0389 | inactive
